Results from PubChem BioAssay AID540256 (National Center for Advancing Translational Sciences (NCATS), 2011).
Where “and” joins values, the source holds several entries; their conditions need not be identical. Equal entries are not always repeated. The whole screen tested about 300,000 compounds, of which about 3,700 (1.2%) were called active. Inconclusive means that the source gave no clear call. Such entries were picked first, then a sample of the others. Calls follow the shape of the full dose curve; tested in HEK293 cells. Potencies of inconclusive entries are doubtful fits and often do not repeat.

Assay: qHTS for Inhibitors of binding or entry into cells for Lassa Virus; also: nearly all actives have a fitted effect of over 50% in size
Settings: Lassa virus pseudotype entry inhibition, cell reporter; activity change, negative = inhibition: at 37.9 µM (top of the series) unless noted
% is scaled to controls: 0 for no effect and ±100 for the full control effect; potency is read from the fitted curve at half-maximal effect.

Compound | Potency | activity change, negative = inhibition
CCC1C(=O)CC(c2ccccc2)NC1c1ccccc1 (stereo not given) | inconclusive: 16.4 µM [inhibitor, partial curve, poor fit] | –
O=C(NCCC1=CCCCC1)c1ccc2c(c1)N(Cc1ccccc1)C(=O)c1ccccc1S2=O (stereo not given) | inconclusive: 35.5 µM [inhibitor, single point] | –
CN=C1S/C(=C\c2ccc(O)c(OC)c2)C(=O)N1C | inconclusive: 1.78 µM [activator, partial curve, poor fit] | –
CCn1c(SCC(=O)Nc2c(C)cccc2C)nnc1-c1nonc1NC(C)=O | – | inactive: -2.92% [at 46.1 µM]
COc1ccc(C2(c3ccc(OC)cc3)NC(=O)N(CC(=O)Nc3ccc(C(=O)N(C)C)cc3)C2=O)cc1 | – | inactive: -13.6%
Nc1c(C(=O)c2ccccc2)sc2nsc(SCCN3CCCC3)c12 | active: 6.31 µM | –
O=C(O)CCS(=O)(=O)c1nc(-c2cccs2)cc(C(F)(F)F)n1 | – | inactive: -14.4%
COc1ccc(-c2cc(C(=O)N3CCCC3)no2)cc1OC | – | inactive: 17.9% [at 46.1 µM]
Cc1ccc(CCNC(=O)CN(c2ccc(C(C)C)cc2)S(=O)(=O)c2c(C)nn(C)c2C)cc1 | inconclusive: 1.78 µM [inhibitor, partial curve, poor fit] | –
CCN(CC)C(=O)CSc1nc2cc3c(cc2c(=O)n1CCCC(=O)NCc1ccc(OC)cc1)OCO3 | inactive and inconclusive: 7.08 µM [inhibitor, full curve, poor fit] | –
Brc1ccc(-c2nc(-c3ccncc3)no2)o1 | inconclusive: 1.3 µM [inhibitor, full curve] | –
Cc1ccccc1C(=O)Nc1ccc(S(=O)(=O)N2CCOCC2)cc1 | inconclusive: 0.562 µM [activator, partial curve, poor fit] | –
COc1ccc(-c2csc(N=C(N)N)n2)cc1 | – | inactive: 19% [at 46.1 µM]
NC(=O)COC(=O)c1ccccc1Oc1ccccc1 | inconclusive: 35.5 µM [inhibitor, single point] | –
CCOc1ccccc1NC(=S)N(CCCN1CCOCC1)Cc1cn(C)c2ccccc12 | inconclusive: 20 µM [inhibitor, single point] | –
O=C(Nc1cccc(C(F)(F)F)c1)Nc1ccc2snnc2c1 | inconclusive: 35.5 µM [inhibitor, single point] | –
COc1ccc(OC)c(CNC(=O)CSc2c3c(nc4cc(Cl)ccc24)CCCC3)c1 | – | inactive: -5.25% [at 46.1 µM]
CC(=O)Nc1cccc(NC(=O)C(=O)Nc2ccc3c(c2)N(C(=O)C2CC2)CCC3)c1 | inconclusive: 35.5 µM [inhibitor, single point] | –
Cc1ccc(-c2csc(C(C#N)=C3CCCC3)n2)cc1 | inconclusive: 2.51 µM [activator, partial curve] | –
COC(=O)C1=C(Nc2ccc(C)cc2)C=C(C)C(C(=O)OC)C1c1cccc(OC)c1 (stereo not given) | inconclusive: 25.9 µM [inhibitor, single point] | –
COc1ccc(CNc2nc(NCc3ccc(OC)cc3)n(S(C)(=O)=O)n2)cc1 | inconclusive: 22.4 µM [inhibitor, single point] | –
Cn1c(=O)cc(SCC(=O)N2CCN(Cc3ccc4c(c3)OCO4)CC2)c2ccccc21 | inconclusive: 7.3 µM [inhibitor, partial curve] | –
O=C(NC1CCCCC1)N1CCC(c2nc(-c3ccc(S(=O)(=O)N4CCCC4)cc3)no2)CC1 | active: 10 µM | –
CCC(=O)Nc1nonc1-c1nc2ccccc2n1CCC(C)C | inconclusive: 35.5 µM [inhibitor, single point] | –

Compound | Potency | activity change, negative = inhibition
Cc1cc(C)nc(/N=c2/ssnc2Cl)c1 | – | inactive: 5.61%
O=C(CCc1c[nH]c2ccccc12)NCc1ccco1 | – | inactive: -2.36% [at 46.1 µM]
CCSc1nnc(NC(=O)C2Cc3ccccc3CN2S(=O)(=O)CC)s1 (stereo not given) | – | inactive: 10.8%
CC(=O)c1ccc(N2CCN(C(=S)Nc3ccc(Cl)c(Cl)c3)CC2)cc1 | inconclusive: 17.8 µM [inhibitor, single point] | –
Cc1cc(N2CCOCC2)nc2ccc(NC(=O)CCC(=O)N3CCC(C)CC3)cc12 | – | inactive: 16.6%
Cc1ccc2nc(-c3ccc(NC(=O)CCS(=O)(=O)c4ccccc4)cc3)sc2c1 | active: 1.84 µM | –
Cc1ccc(C(=O)Nc2cccc(-c3cnc4ccccc4n3)c2)cc1 | – | inactive: -13.2%
CN(C)c1nc(N(C)C)nc(N(C)C)n1 | inconclusive: 0.58 µM [activator, full curve, poor fit] | –
COc1cc(NS(=O)(=O)c2cc(Br)cc3c2N(C(=O)C2CC2)CC3)cc(OC)c1 | active: 3.55 µM | –
COC(=O)/C=C1/S/C(=N/NC(=O)c2ccccc2C)NC1=O | – | inactive: 18.7%
C/C(=N\NC(=O)c1ccc(NS(=O)(=O)c2cccs2)cc1)c1ccccn1 | inconclusive: 3.16 µM [inhibitor, full curve, poor fit] | –
CC(=O)Nc1ccc(NC(=O)COC(=O)CCNS(=O)(=O)c2c(Cl)cccc2Cl)cc1 | – | inactive: 29%
CC(=O)c1ccc(-n2nnnc2SCC(=O)N2CCc3ccccc3C2)cc1 | inconclusive: 11.2 µM [inhibitor, single point] | –
CC/C(=N\NC(=S)Nc1cc(C)ccc1C)c1ccc(OC(F)F)cc1 | inconclusive: 14.1 µM [inhibitor, partial curve, poor fit] | –
Cc1cccc(NC(=O)Cn2c(=O)c3cccn3c3ccccc32)c1C | inconclusive: 7.94 µM [inhibitor, partial curve, poor fit] | –
N#Cc1cccc(NCC(=O)Nc2ccc3c(c2)OCCO3)c1 | inconclusive: 22.4 µM [inhibitor, single point] | –
COc1cc2c(cc1OC)CN(c1nc(CN3CCOCC3)nc3sc4c(c13)CCCC4)CC2 | inconclusive: 11.2 µM [inhibitor, partial curve] | –
OCCN1CCN(c2nc(-c3ccccc3)c3cc(Br)ccc3n2)CC1 | inconclusive: 6.31 µM [activator, partial curve, poor fit] | –
CCOC(=O)Cn1cc(/C=N/NC(=O)c2cc3ccccc3o2)c2ccccc21 | inconclusive: 15.8 µM [inhibitor, single point] | –
COc1cc(NC(=O)c2ccccc2Cl)ccc1NC(=O)c1cccs1 | – | inactive: 7.67%
CCOC(=O)N1CCN(c2ncnc3c2oc2nc(C(C)C)c4c(c23)CCC4)CC1 | – | inactive: 4.07%
O=S(=O)(c1cccc2cccnc12)N1CCCc2ccccc21 | inconclusive: 11.2 µM [activator, partial curve, poor fit] | –
COc1ccccc1-c1c(C(F)(F)F)oc2cc(OS(C)(=O)=O)ccc2c1=O | inconclusive: 5.62 µM [inhibitor, partial curve, poor fit] | –
CNc1nc2c(c(=O)n(C)c(=O)n2C)n1CC(O)COc1ccc(OC)cc1 (stereo not given) | inconclusive: 35.5 µM [inhibitor, single point] | –

3 entries from above, as a markdown table.

| Compound | Potency | activity change, negative = inhibition |
| --- | --- | --- |
| O=C(CCc1c[nH]c2ccccc12)NCc1ccco1 | – | inactive: -2.36% [at 46.1 µM] |
| CN(C)c1nc(N(C)C)nc(N(C)C)n1 | inconclusive: 0.58 µM [activator, full curve, poor fit] | – |
| CCOC(=O)Cn1cc(/C=N/NC(=O)c2cc3ccccc3o2)c2ccccc21 | inconclusive: 15.8 µM [inhibitor, single point] | – |

Going on with the list.

Compound | Potency | activity change, negative = inhibition
CCCn1c(NC(=O)CN2C(=O)NC3(CCCCC3)C2=O)nc2ccccc21 | inconclusive: 6.31 µM [inhibitor, partial curve] | –
COc1ccc(-c2cn3cccc(C)c3n2)cc1Br | inconclusive: 1.26 µM [activator, single point] | –
CCOc1ccccc1N1CCN(C(=O)CCNS(=O)(=O)c2ccccc2F)CC1 | – | inactive: 1.05%
COc1cccc2sc(Nc3nc4ccc(NC(C)=O)cc4s3)nc12 | inconclusive: 10 µM [inhibitor, partial curve, poor fit] | –
CCCc1ccc(OCc2ccc(C(=O)N3CCCC3)o2)cc1 | – | inactive: 3.94%
O=C1NC(=O)C(CCc2ccccc2)(c2ccccc2)N1 (stereo not given) | – | inactive: -11.9%
Cc1ccc(C(=O)NCc2ccccc2)cc1Br | – | inactive: -8.6%
COc1ccc(N2C(N)=C(C#N)C(c3cc(CN4CCOCC4)cs3)C3=C2CCCC3=O)cc1 (stereo not given) | inconclusive: 35.5 µM [inhibitor, single point] | –
Cc1ccc(CCSCC(=O)O)cn1 | – | inactive: 7.4%
CC(C)c1ccc(OCC(=O)NCC(c2ccc(Cl)cc2)N2CCOCC2)cc1 (stereo not given) | – | inactive: -8.64% [at 46.1 µM]
CCOC(=O)C1=C(CN2CCN(C)CC2)NC(=O)NC1c1ccc(F)cc1 (stereo not given) | inconclusive: 7.94 µM [activator, partial curve, poor fit] | –
O=[N+]([O-])c1c(NCCCO)cc(N2CCN(Cc3ccc4c(c3)OCO4)CC2)c2nonc12 | inconclusive: 35.5 µM [inhibitor, single point] | –
CCN1CCN(c2ccc(S(=O)(=O)N3CCCCC3)cc2NC(=O)/C=C/c2ccc(OC(F)F)cc2)CC1 | active: 6.31 µM | –
Cc1ccc(CNC(=O)C2CCN(C(=O)Nc3ccc(C)cc3)CC2)cc1 | inconclusive: 1.26 µM [inhibitor, full curve, poor fit] | –
COC(=O)C1=CN(Cc2ccc(OC)cc2)C=C(C(=O)OC)C1c1cc(OC)c(OC)c(OC)c1 | inconclusive: 1.12 µM [inhibitor, full curve, poor fit] | –
CCN(Cc1ccccc1)C(=O)Cn1c(=O)n(-c2cccc(C)c2)c(=O)c2c1c1cc(OC)ccc1n2C | inconclusive: 5.62 µM [inhibitor, single point] | –
COc1cccc(C(=O)NC2CC3CCCC(C2)N3CC(=O)Nc2ccc(N(C)C)cc2)c1 (stereo not given) | – | inactive: 4.65%
CN1C(=O)/C(=C\c2cc(N=Nc3ccccc3)ccc2O)SC1=S | – | inactive: -1.07%
Cc1ccc2nc(C)c3c(c2c1)OC(C(C)(Cl)Br)C3 (stereo not given) | inconclusive: 11.2 µM [inhibitor, partial curve, poor fit] | –
O=C(COC(=O)c1ccc(O)cc1)Nc1ccccc1-c1ccccc1 | inconclusive: 10.3 µM [inhibitor, partial curve] | –
S=C(NCCCN1CCN(CCCNC(=S)NC2CCCCC2)CC1)NC1CCCCC1 | – | inactive: -15.1% [at 46.1 µM]
CCCCn1cnc2c([nH]c3cc(OC)ccc32)c1=O | inconclusive: 0.891 µM [activator, partial curve] | –
